According to paper PMC5923425, “Structural analysis of human ARS2 as a platform for co-transcriptional RNA sorting” (Nature Communications, 2018):

Assays:
Test in all cases: fluorescence polarisation
[1] = tested on: T1, ARS2 147-871 K719A K722A K734A (Homo sapiens); details: 20 mM HEPES pH 7.8, 115 mM NaCl, 1 mM MgCl2, 2 mM TCEP, 7.5% glycerol, 37.5 nM RNA, 25 C; recombinant protein; residues 147-871; protein details: His-tag cleaved by TEV; label: 5'-FAM
T1 sequence (looked up): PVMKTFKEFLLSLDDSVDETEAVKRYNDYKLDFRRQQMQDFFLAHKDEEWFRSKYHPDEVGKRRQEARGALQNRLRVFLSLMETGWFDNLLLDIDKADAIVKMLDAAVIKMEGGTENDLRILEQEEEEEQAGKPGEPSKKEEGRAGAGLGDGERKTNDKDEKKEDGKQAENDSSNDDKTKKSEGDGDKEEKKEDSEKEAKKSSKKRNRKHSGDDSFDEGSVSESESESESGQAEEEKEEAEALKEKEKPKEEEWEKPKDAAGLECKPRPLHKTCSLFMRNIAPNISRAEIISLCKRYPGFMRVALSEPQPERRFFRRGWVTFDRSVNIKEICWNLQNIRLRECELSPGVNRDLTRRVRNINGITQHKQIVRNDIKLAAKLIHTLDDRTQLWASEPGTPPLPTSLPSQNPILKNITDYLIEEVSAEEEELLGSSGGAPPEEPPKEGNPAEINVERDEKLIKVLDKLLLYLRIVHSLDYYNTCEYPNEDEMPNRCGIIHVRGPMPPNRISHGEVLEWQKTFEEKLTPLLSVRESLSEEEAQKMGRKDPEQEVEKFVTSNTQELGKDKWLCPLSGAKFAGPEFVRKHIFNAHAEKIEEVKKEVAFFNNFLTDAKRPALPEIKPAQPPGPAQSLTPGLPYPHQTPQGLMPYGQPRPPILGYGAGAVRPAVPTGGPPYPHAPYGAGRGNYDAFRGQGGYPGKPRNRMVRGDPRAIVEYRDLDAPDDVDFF

[2] = tested on: ARS2 147-270+408-763 (crystallised core) (Homo sapiens); details: 20 mM HEPES pH 7.8, 115 mM NaCl, 1 mM MgCl2, 2 mM TCEP, 7.5% glycerol, 37.5 nM RNA, 25 C; recombinant protein; protein details: His-tag cleaved by TEV; label: 5'-FAM
[3] = tested on: T2, ARS2 147-871 (Homo sapiens); details: 20 mM HEPES pH 7.8, 115 mM NaCl, 1 mM MgCl2, 2 mM TCEP, 7.5% glycerol, 37.5 nM RNA, 25 C, recombinant protein, residues 147-871, protein details: His-tag cleaved by TEV
T2 sequence (looked up): T1 sequence (looked up) with A573K, A576K, A588K

Sequence	binding result [1]	Kd [2]	Kd ([3]; label: 5'-FAM)	Kd [3]
AGUAGUAACAAGAGGGUA [AG-rich ssRNA]	binds	2.5 µM	2.3 µM	–
UACCCUCUUGUUACUACU / AGUAGUAACAAGAGGG [dsRNA1]	–	–	–	36.7 µM
UACCCUCUUGUUACUACU [ssRNA1 (UC-rich)]	–	–	–	4.5 µM

Changes are numbered by the printed parent chain. Construct, isoform or probe ends are uncertain for at least one entry. For some assays here: At least one verdict rests on a figure or table, not on a statement of the authors. For some assays here: Tags and fusion partners may be left off the protein sequences shown.
